Some of the results follow.
Assays:
Experiment in all cases: glycan array binding signal (z-score within array); higher = stronger binding
Settings in all cases: glycan notation: IUPAC condensed, linker removed
[1] = biological target: Fuc(a1-2)Gal6S(b1-3)GlcNAc
Procedure, shortened: (§1)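 The Consortium for Functional Glycomics database supplied 3228 glycan arrays, of which those lacking an available protein sequence were dropped. The binding signal, a within-array Z-score, was averaged across arrays of the same protein sequence and across linkers. Negative scores can be read as non-binding.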

[2] = biological target: Fuc(a1-2)Gal6S(b1-3)GlcNAc6S
Procedure, shortened: as §1

Fuc(a1-2)Gal6S(b1-4)Glc = biological target: Fuc(a1-2)Gal6S(b1-4)Glc
Procedure, shortened: as §1

[3] = biological target: Fuc(a1-2)Gal6S(b1-4)Glc6S
Procedure, shortened: as §1

Fuc(a1-2)[Gal(a1-3)]Gal = biological target: Fuc(a1-2)[Gal(a1-3)]Gal
Procedure, shortened: as §1

[4] = biological target: Fuc(a1-2)[Gal(a1-3)]Gal(b1-3)GalNAc
Procedure, shortened: as §1

[5] = biological target: Fuc(a1-2)[Gal(a1-3)]Gal(b1-3)GalNAc(b1-3)Gal(a1-4)Gal(b1-4)Glc
Procedure, shortened: as §1

[6] = biological target: Fuc(a1-2)[Gal(a1-3)]Gal(b1-3)GlcNAc
Procedure, shortened: as §1

[7] = biological target: Fuc(a1-2)[Gal(a1-3)]Gal(b1-3)GlcNAc(b1-2)Man(a1-3)[Fuc(a1-2)[Gal(a1-3)]Gal(b1-3)GlcNAc(b1-2)Man(a1-6)]Man(b1-4)GlcNAc(b1-4)GlcNAc
Procedure, shortened: as §1

[8] = biological target: Fuc(a1-2)[Gal(a1-3)]Gal(b1-3)GlcNAc(b1-2)Man(a1-3)[Fuc(a1-2)[Gal(a1-3)]Gal(b1-3)GlcNAc(b1-2)Man(a1-6)]Man(b1-4)GlcNAc(b1-4)[Fuc(a1-6)]GlcNAc
Procedure, shortened: as §1

[9] = biological target: Fuc(a1-2)[Gal(a1-3)]Gal(b1-3)GlcNAc(b1-3)GalNAc
Procedure, shortened: as §1

[10] = biological target: Fuc(a1-2)[Gal(a1-3)]Gal(b1-3)GlcNAc(b1-6)GalNAc
Procedure, shortened: as §1

[11] = biological target: Fuc(a1-2)[Gal(a1-3)]Gal(b1-4)Glc
Procedure, shortened: as §1

[12] = biological target: Fuc(a1-2)[Gal(a1-3)]Gal(b1-4)GlcNAc
Procedure, shortened: as §1

[13] = biological target: Fuc(a1-2)[Gal(a1-3)]Gal(b1-4)GlcNAc(b1-2)Man
Procedure, shortened: as §1

[14] = biological target: Fuc(a1-2)[Gal(a1-3)]Gal(b1-4)GlcNAc(b1-2)Man(a1-3)[Fuc(a1-2)[Gal(a1-3)]Gal(b1-4)GlcNAc(b1-2)Man(a1-6)]Man(b1-4)GlcNAc(b1-4)GlcNAc
Procedure, shortened: as §1

[15] = biological target: Fuc(a1-2)[Gal(a1-3)]Gal(b1-4)GlcNAc(b1-2)Man(a1-3)[Fuc(a1-2)[Gal(a1-3)]Gal(b1-4)GlcNAc(b1-2)Man(a1-6)]Man(b1-4)GlcNAc(b1-4)[Fuc(a1-6)]GlcNAc
Procedure, shortened: as §1

[16] = biological target: Fuc(a1-2)[Gal(a1-3)]Gal(b1-4)GlcNAc(b1-3)GalNAc
Procedure, shortened: as §1

[17] = biological target: Fuc(a1-2)[Gal(a1-3)]Gal(b1-4)GlcNAc(b1-3)[Fuc(a1-2)[Gal(a1-3)]Gal(b1-4)GlcNAc(b1-6)]GalNAc
Procedure, shortened: as §1

[18] = biological target: Fuc(a1-2)[Gal(a1-3)]Gal(b1-4)GlcNAc(b1-6)GalNAc
Procedure, shortened: as §1

[19] = biological target: Fuc(a1-2)[Gal(a1-3)]Gal(b1-4)[Fuc(a1-3)]Glc
Procedure, shortened: as §1

[20] = biological target: Fuc(a1-2)[Gal(a1-3)]Gal(b1-4)[Fuc(a1-3)]GlcNAc
Procedure, shortened: as §1

[21] = biological target: Fuc(a1-2)[Gal(a1-3)]Gal(b1-4)[Fuc(a1-3)]GlcNAc(b1-3)GalNAc
Procedure, shortened: as §1

[22] = biological target: Fuc(a1-2)[Gal(a1-4)]Gal(b1-4)GlcNAc
Procedure, shortened: as §1

[23] = biological target: Fuc(a1-2)[GalNAc(a1-3)]Gal
Procedure, shortened: as §1

[24] = biological target: Fuc(a1-2)[GalNAc(a1-3)]Gal(b1-3)GalNAc(a1-3)[Fuc(a1-2)]Gal(b1-4)GlcNAc
Procedure, shortened: as §1

[25] = biological target: Fuc(a1-2)[GalNAc(a1-3)]Gal(b1-3)GalNAc(b1-3)Gal(a1-4)Gal(b1-4)Glc
Procedure, shortened: as §1

[26] = biological target: Fuc(a1-2)[GalNAc(a1-3)]Gal(b1-3)GlcNAc
Procedure, shortened: as §1

[27] = biological target: Fuc(a1-2)[GalNAc(a1-3)]Gal(b1-3)GlcNAc(b1-2)Man(a1-3)[Fuc(a1-2)[GalNAc(a1-3)]Gal(b1-3)GlcNAc(b1-2)Man(a1-6)]Man(b1-4)GlcNAc(b1-4)GlcNAc
Procedure, shortened: as §1

[28] = biological target: Fuc(a1-2)[GalNAc(a1-3)]Gal(b1-3)GlcNAc(b1-2)Man(a1-3)[Fuc(a1-2)[GalNAc(a1-3)]Gal(b1-3)GlcNAc(b1-2)Man(a1-6)]Man(b1-4)GlcNAc(b1-4)[Fuc(a1-6)]GlcNAc
Procedure, shortened: as §1

[29] = biological target: Fuc(a1-2)[GalNAc(a1-3)]Gal(b1-3)GlcNAc(b1-3)GalNAc
Procedure, shortened: as §1

[30] = biological target: Fuc(a1-2)[GalNAc(a1-3)]Gal(b1-3)GlcNAc(b1-6)GalNAc
Procedure, shortened: as §1

[31] = biological target: Fuc(a1-2)[GalNAc(a1-3)]Gal(b1-4)Glc
Procedure, shortened: as §1

[32] = biological target: Fuc(a1-2)[GalNAc(a1-3)]Gal(b1-4)GlcNAc
Procedure, shortened: as §1

[33] = biological target: Fuc(a1-2)[GalNAc(a1-3)]Gal(b1-4)GlcNAc(b1-2)Man
Procedure, shortened: as §1

[34] = biological target: Fuc(a1-2)[GalNAc(a1-3)]Gal(b1-4)GlcNAc(b1-2)Man(a1-3)[Fuc(a1-2)[GalNAc(a1-3)]Gal(b1-4)GlcNAc(b1-2)Man(a1-6)]Man(b1-4)GlcNAc(b1-4)GlcNAc
Procedure, shortened: as §1

[35] = biological target: Fuc(a1-2)[GalNAc(a1-3)]Gal(b1-4)GlcNAc(b1-2)Man(a1-3)[Fuc(a1-2)[GalNAc(a1-3)]Gal(b1-4)GlcNAc(b1-2)Man(a1-6)]Man(b1-4)GlcNAc(b1-4)[Fuc(a1-6)]GlcNAc
Procedure, shortened: as §1

[36] = biological target: Fuc(a1-2)[GalNAc(a1-3)]Gal(b1-4)GlcNAc(b1-3)Gal(b1-4)GlcNAc
Procedure, shortened: as §1

[37] = biological target: Fuc(a1-2)[GalNAc(a1-3)]Gal(b1-4)GlcNAc(b1-3)Gal(b1-4)GlcNAc(b1-3)Gal(b1-4)GlcNAc
Procedure, shortened: as §1

[38] = biological target: Fuc(a1-2)[GalNAc(a1-3)]Gal(b1-4)GlcNAc(b1-3)GalNAc
Procedure, shortened: as §1

[39] = biological target: Fuc(a1-2)[GalNAc(a1-3)]Gal(b1-4)GlcNAc(b1-3)[Fuc(a1-2)[GalNAc(a1-3)]Gal(b1-4)GlcNAc(b1-6)]GalNAc
Procedure, shortened: as §1

[40] = biological target: Fuc(a1-2)[GalNAc(a1-3)]Gal(b1-4)GlcNAc(b1-6)GalNAc
Procedure, shortened: as §1

[41] = biological target: Fuc(a1-2)[GalNAc(a1-3)]Gal(b1-4)[Fuc(a1-3)]GlcNAc
Procedure, shortened: as §1

[42] = biological target: Fuc(a1-2)[GalNAc(a1-3)]Gal(b1-4)[Fuc(a1-3)]GlcNAc(b1-3)GalNAc
Procedure, shortened: as §1

[43] = biological target: Fuc(a1-2)[GalNAc(a1-4)]Gal(b1-4)GlcNAc
Procedure, shortened: as §1

B1: XTP3-B-MRH2 (Homo sapiens), Q96DZ1 (protein)
chain: EFLSGSYCFRGGVGWWKYEFCYGKHVHQYHEDKDSGKTSVVVGTWNQEEHIEWAKKNTARAYHLQDDGTQTVRMVSHFYGNGDICDITDKPRQVTVKLKCKESDSPHAVTVYMLEPHSCQYILGVESPVICKILDTA
glycan array binding signal (z-score) [1]: -2.05
glycan array binding signal (z-score) [2]: -0.606
glycan array binding signal (z-score) (Fuc(a1-2)Gal6S(b1-4)Glc): 0.258
glycan array binding signal (z-score) [3]: 0.542
glycan array binding signal (z-score) (Fuc(a1-2)[Gal(a1-3)]Gal): 0.097
glycan array binding signal (z-score) [4]: -0.386
glycan array binding signal (z-score) [5]: 0.773
glycan array binding signal (z-score) [6]: 0.169
glycan array binding signal (z-score) [7]: 2.72
glycan array binding signal (z-score) [8]: 0.171
glycan array binding signal (z-score) [9]: -0.402
glycan array binding signal (z-score) [10]: -0.515
glycan array binding signal (z-score) [11]: 1.19
glycan array binding signal (z-score) [12]: -0.087
glycan array binding signal (z-score) [13]: -0.997
glycan array binding signal (z-score) [14]: 2.95
glycan array binding signal (z-score) [15]: -1.76
glycan array binding signal (z-score) [16]: -0.169
glycan array binding signal (z-score) [17]: 1.8
glycan array binding signal (z-score) [18]: -0.292
glycan array binding signal (z-score) [19]: -0.501
glycan array binding signal (z-score) [20]: -0.641
glycan array binding signal (z-score) [21]: -0.696
glycan array binding signal (z-score) [22]: -0.663
glycan array binding signal (z-score) [23]: 0.338
glycan array binding signal (z-score) [24]: -0.387
glycan array binding signal (z-score) [25]: -0.923
glycan array binding signal (z-score) [26]: 0.198
glycan array binding signal (z-score) [27]: -0.31
glycan array binding signal (z-score) [28]: -0.127
glycan array binding signal (z-score) [29]: -1.41
glycan array binding signal (z-score) [30]: 0.161
glycan array binding signal (z-score) [31]: 1.2
glycan array binding signal (z-score) [32]: -0.054
glycan array binding signal (z-score) [33]: -0.41
glycan array binding signal (z-score) [34]: -0.577
glycan array binding signal (z-score) [35]: -0.79
glycan array binding signal (z-score) [36]: -0.677
glycan array binding signal (z-score) [37]: 0.442
glycan array binding signal (z-score) [38]: 0.028
glycan array binding signal (z-score) [39]: -1.11
glycan array binding signal (z-score) [40]: -0.35
glycan array binding signal (z-score) [41]: -0.177
glycan array binding signal (z-score) [42]: 0.842
glycan array binding signal (z-score) [43]: -0.124

— the supplement of paper PMC8728848
